{"sequences": {"note": "Amino acid sequences for entries named in this document (tags omitted).", "UniProt P11142": "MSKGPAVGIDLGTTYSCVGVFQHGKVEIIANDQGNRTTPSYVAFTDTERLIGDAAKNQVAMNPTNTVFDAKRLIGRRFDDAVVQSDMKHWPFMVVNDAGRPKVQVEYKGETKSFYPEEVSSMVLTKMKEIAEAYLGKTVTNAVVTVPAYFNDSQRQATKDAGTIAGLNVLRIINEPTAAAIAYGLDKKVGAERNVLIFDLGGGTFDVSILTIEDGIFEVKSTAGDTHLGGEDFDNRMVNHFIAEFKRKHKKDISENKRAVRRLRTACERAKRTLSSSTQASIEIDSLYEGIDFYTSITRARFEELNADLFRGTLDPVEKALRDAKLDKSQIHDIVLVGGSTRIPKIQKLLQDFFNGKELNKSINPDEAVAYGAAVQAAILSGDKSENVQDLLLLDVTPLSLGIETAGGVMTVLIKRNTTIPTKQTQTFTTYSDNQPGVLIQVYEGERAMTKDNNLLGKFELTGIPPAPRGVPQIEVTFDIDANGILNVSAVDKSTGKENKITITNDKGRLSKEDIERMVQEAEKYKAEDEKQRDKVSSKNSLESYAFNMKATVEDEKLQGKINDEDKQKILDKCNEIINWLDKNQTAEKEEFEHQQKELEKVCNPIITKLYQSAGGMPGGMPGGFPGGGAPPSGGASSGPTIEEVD"}, "source": "paper PMC9457086", "biological_target": "T1, phosphatase and actin regulator-1 (PHACTR1), overexpressed from adenovirus Ad-PHACTR1 (human) (UniProt Q9C0D0)", "T1 sequence": "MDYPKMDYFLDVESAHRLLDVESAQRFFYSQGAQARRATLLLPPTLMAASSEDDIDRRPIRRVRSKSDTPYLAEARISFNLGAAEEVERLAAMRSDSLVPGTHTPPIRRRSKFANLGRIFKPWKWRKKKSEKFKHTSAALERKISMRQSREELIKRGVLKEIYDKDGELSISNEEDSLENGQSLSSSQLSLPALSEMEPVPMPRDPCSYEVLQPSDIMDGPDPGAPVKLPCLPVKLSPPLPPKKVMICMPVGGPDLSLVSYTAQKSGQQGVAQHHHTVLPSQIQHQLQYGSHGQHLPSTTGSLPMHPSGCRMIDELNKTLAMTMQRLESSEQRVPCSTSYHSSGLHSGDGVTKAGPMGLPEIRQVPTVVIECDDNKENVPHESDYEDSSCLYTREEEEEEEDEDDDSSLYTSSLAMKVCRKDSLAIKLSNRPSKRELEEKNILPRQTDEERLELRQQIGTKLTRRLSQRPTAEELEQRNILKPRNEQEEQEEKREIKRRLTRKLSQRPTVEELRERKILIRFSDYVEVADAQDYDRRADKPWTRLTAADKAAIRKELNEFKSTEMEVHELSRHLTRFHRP", "assay": "co-IP; Co-IP of PHACTR1 and HSPA8 in HUVECs treated with TNF-α (10 ng/mL, 6 h); immunoprecipitation-based verification", "note": "These are yes or no findings as the source states them, for the method shown. In cells and extracts the contact can be indirect. Some entries that bind do so weakly or less than the wild type. Where a sequence is shown, tags or fusion partners need not be part of it."}
{"substance": "heat shock protein family A member 8 (HSPA8) (from UniProt P11142 1-646)", "values": [{"measurement": "binding", "result": "binds"}]}
